Some entries repeat one wording, which the source may state once for all of them.
experiment: Melamine formaldehyde PMC leakage; conditions: class code letter within Comment Code

| Structure (SMILES) | Melamine formaldehyde PMC leakage (Comment Code J) |
| --- | --- |
| CCCCCCC1(C)CCC(=O)O1 (stereo not drawn) [Material 177] | J (Melamine formaldehyde PMC leakage less than or equal to 5%) |
| CCCCC1OC(C)CC(C)(C)O1 (stereo not drawn) [Material 278] | J (Melamine formaldehyde PMC leakage less than or equal to 5%) |

experiment: Melamine formaldehyde PMC Headspace Response Ratio; conditions: not given

| Structure (SMILES) | Melamine formaldehyde PMC Headspace Response Ratio (Comment Code I) |
| --- | --- |
| CC(C)=CCC/C(C)=C/CO [Material 1082] | I (Melamine formaldehyde PMC Headspace Response Ratio greater than or equal to 10) |
| CCCCCCCC#N [Material 578] | I (Melamine formaldehyde PMC Headspace Response Ratio greater than or equal to 10) |
| CC(C)(O)Cc1ccccc1 [Material 649] | I (Melamine formaldehyde PMC Headspace Response Ratio greater than or equal to 10) |
| COc1cc(OC)c(C=O)c(OC)c1 [Material 736] | I (Melamine formaldehyde PMC Headspace Response Ratio greater than or equal to 10) |
| Cc1cccc(CCO)c1 [Material 928] | I (Melamine formaldehyde PMC Headspace Response Ratio greater than or equal to 10) |
| C=C/C(C)=C/CC=C(C)C [Material 1078] | I (Melamine formaldehyde PMC Headspace Response Ratio greater than or equal to 10) |
| C=CCCC(=O)c1ccccc1 [Material 792] | I (Melamine formaldehyde PMC Headspace Response Ratio greater than or equal to 10) |
| CCCCCCCC(C)O (stereo not drawn) [Material 839] | I (Melamine formaldehyde PMC Headspace Response Ratio greater than or equal to 10) |
| Cc1ncsc1CCO [Material 1042] | I (Melamine formaldehyde PMC Headspace Response Ratio greater than or equal to 10) |
| CC(O)CO (stereo not drawn) [Material 993] | I (Melamine formaldehyde PMC Headspace Response Ratio greater than or equal to 10) |
| CCCCCCCC(C)=O [Material 840] | I (Melamine formaldehyde PMC Headspace Response Ratio greater than or equal to 10) |

same assay, conditions: class code letter within Comment Code

| Structure (SMILES) | Melamine formaldehyde PMC Headspace Response Ratio (Comment Code I) |
| --- | --- |
| CCCCCCC1(C)CCC(=O)O1 (stereo not drawn) [Material 177] | I (Melamine formaldehyde PMC Headspace Response Ratio greater than or equal to 10) |
| CCCCC1OC(C)CC(C)(C)O1 (stereo not drawn) [Material 278] | I (Melamine formaldehyde PMC Headspace Response Ratio greater than or equal to 10) |
| OCCCc1ccccc1 [Material 254] | I (Melamine formaldehyde PMC Headspace Response Ratio greater than or equal to 10) |
| CC(=O)c1oc2ccccc2c1C [Material 61] | I (Melamine formaldehyde PMC Headspace Response Ratio greater than or equal to 10) |
| C=CCc1ccc(O)c(OC)c1 [Material 375] | I (Melamine formaldehyde PMC Headspace Response Ratio greater than or equal to 10) |
| OCC=Cc1ccccc1 [Material 555] | I (Melamine formaldehyde PMC Headspace Response Ratio greater than or equal to 10) |
| OC1CCC2CCCCC2C1 (stereo not drawn) [Material 474] | I (Melamine formaldehyde PMC Headspace Response Ratio greater than or equal to 10) |
| CC1OCC(c2ccccc2)O1 (stereo not drawn) [Material 190] | I (Melamine formaldehyde PMC Headspace Response Ratio greater than or equal to 10) |
| CCC1=C(O)C(=O)C(C)O1 (stereo not drawn) [Material 259] | I (Melamine formaldehyde PMC Headspace Response Ratio greater than or equal to 10) |
| c1ccc2occc2c1 [Material 493] | I (Melamine formaldehyde PMC Headspace Response Ratio greater than or equal to 10) |
| CC(O)C(C)Cc1ccccc1 (stereo not drawn) [Material 82] | I (Melamine formaldehyde PMC Headspace Response Ratio greater than or equal to 10) |
| CC(C)=CCC/C(C)=C\CO [Material 64] | I (Melamine formaldehyde PMC Headspace Response Ratio greater than or equal to 10) |
| CCCCCCCCC=O [Material 50] | I (Melamine formaldehyde PMC Headspace Response Ratio greater than or equal to 10) |
| C/C=C/CCC1CCCC(=O)O1 (stereo not drawn) [Material 187] | I (Melamine formaldehyde PMC Headspace Response Ratio greater than or equal to 10) |

same assay, conditions: code I of the Comment Code column, Table 1

| Structure (SMILES) | Comment Code: Melamine formaldehyde PMC Headspace Response Ratio |
| --- | --- |
| COCc1ccc(O)c(OC)c1 [Material 1113] | I (Melamine formaldehyde PMC Headspace Response Ratio greater than or equal to 10) |

same assay, conditions: code letter I

| Structure (SMILES) | Comment Code: Melamine formaldehyde PMC Headspace Response Ratio |
| --- | --- |
| CCCCCCC=O [Material 284] | I (Melamine formaldehyde PMC Headspace Response Ratio greater than or equal to 10) |
| O=C1CCC2(CCCCC2)O1 [Material 1039] | I (Melamine formaldehyde PMC Headspace Response Ratio greater than or equal to 10) |
| CCC(C)c1nccnc1OC (stereo not drawn) [Material 845] | I (Melamine formaldehyde PMC Headspace Response Ratio greater than or equal to 10) |
| N#CC=Cc1ccccc1 [Material 549] | I (Melamine formaldehyde PMC Headspace Response Ratio greater than or equal to 10) |
| CCCC=CCO [Material 851] | I (Melamine formaldehyde PMC Headspace Response Ratio greater than or equal to 10) |
| N#C/C=C/c1ccccc1 [Material 556] | I (Melamine formaldehyde PMC Headspace Response Ratio greater than or equal to 10) |
| O=C1CCc2ccccc2O1 [Material 442] | I (Melamine formaldehyde PMC Headspace Response Ratio greater than or equal to 10) |
| COC(=O)Cc1ccccc1 [Material 97] | I (Melamine formaldehyde PMC Headspace Response Ratio greater than or equal to 10) |
| O=Cc1ccc2c(c1)OCO2 [Material 287] | I (Melamine formaldehyde PMC Headspace Response Ratio greater than or equal to 10) |
| CC(=O)C(C)O (stereo not drawn) [Material 760] | I (Melamine formaldehyde PMC Headspace Response Ratio greater than or equal to 10) |
| O=C(O)CCc1ccccc1 [Material 255] | I (Melamine formaldehyde PMC Headspace Response Ratio greater than or equal to 10) |
| Cc1ccc2ncccc2c1 [Material 777] | I (Melamine formaldehyde PMC Headspace Response Ratio greater than or equal to 10) |
| CCC/C=C/CO [Material 1069] | I (Melamine formaldehyde PMC Headspace Response Ratio greater than or equal to 10) |
| COc1cc(C)ccc1O [Material 492] | I (Melamine formaldehyde PMC Headspace Response Ratio greater than or equal to 10) |
| C=C(OC(C)=O)c1ccccc1 [Material 931] | I (Melamine formaldehyde PMC Headspace Response Ratio greater than or equal to 10) |
| C=CC(C)=CC=CC(=C)C [Material 495] | I (Melamine formaldehyde PMC Headspace Response Ratio greater than or equal to 10) |
| COC(C)(C)CCO [Material 812] | I (Melamine formaldehyde PMC Headspace Response Ratio greater than or equal to 10) |
| CCC=CCCO [Material 817] | I (Melamine formaldehyde PMC Headspace Response Ratio greater than or equal to 10) |
| C/C=C/c1ccc(O)c(OC)c1 [Material 1084] | I (Melamine formaldehyde PMC Headspace Response Ratio greater than or equal to 10) |
| CCCCCC1CCCC1=O (stereo not drawn) [Material 469] | I (Melamine formaldehyde PMC Headspace Response Ratio greater than or equal to 10) |
| OCc1ccccc1 [Material 652] | I (Melamine formaldehyde PMC Headspace Response Ratio greater than or equal to 10) |
| CCCCCCOC(=O)CC [Material 264] | I (Melamine formaldehyde PMC Headspace Response Ratio greater than or equal to 10) |
| C=Cc1ccc(O)cc1 [Material 789] | I (Melamine formaldehyde PMC Headspace Response Ratio greater than or equal to 10) |
| CC(=O)CCc1ccccc1 [Material 640] | I (Melamine formaldehyde PMC Headspace Response Ratio greater than or equal to 10) |
| CC(C=O)=Cc1ccccc1 [Material 701] | I (Melamine formaldehyde PMC Headspace Response Ratio greater than or equal to 10) |
| CC/C=C\CCOC(=O)CC [Material 538] | I (Melamine formaldehyde PMC Headspace Response Ratio greater than or equal to 10) |
| CCOC(=O)OC1CCCCC1C(C)(C)C (stereo not drawn) [Material 365] | I (Melamine formaldehyde PMC Headspace Response Ratio greater than or equal to 10) |
| CC(C)CCCCCCO [Material 205] | I (Melamine formaldehyde PMC Headspace Response Ratio greater than or equal to 10) |
| CC(=O)OC(C)c1ccccc1 (stereo not drawn) [Material 1041] | I (Melamine formaldehyde PMC Headspace Response Ratio greater than or equal to 10) |

From US20160090556A1, “PRODUCTS COMPRISING MALODOR REDUCTION MATERIALS” (The Procter & Gamble Company, priority 2014, published 2016)
